# Measurements published in PubChem BioAssay AID588590 (National Center for Advancing Translational Sciences (NCATS), 2011).
# Chains of the proteins cited; added tags and fusions are not shown. Lines headed by an entry give the natural chain unless they say otherwise; changes in a name come on top.
# UniProt Q9UNA4: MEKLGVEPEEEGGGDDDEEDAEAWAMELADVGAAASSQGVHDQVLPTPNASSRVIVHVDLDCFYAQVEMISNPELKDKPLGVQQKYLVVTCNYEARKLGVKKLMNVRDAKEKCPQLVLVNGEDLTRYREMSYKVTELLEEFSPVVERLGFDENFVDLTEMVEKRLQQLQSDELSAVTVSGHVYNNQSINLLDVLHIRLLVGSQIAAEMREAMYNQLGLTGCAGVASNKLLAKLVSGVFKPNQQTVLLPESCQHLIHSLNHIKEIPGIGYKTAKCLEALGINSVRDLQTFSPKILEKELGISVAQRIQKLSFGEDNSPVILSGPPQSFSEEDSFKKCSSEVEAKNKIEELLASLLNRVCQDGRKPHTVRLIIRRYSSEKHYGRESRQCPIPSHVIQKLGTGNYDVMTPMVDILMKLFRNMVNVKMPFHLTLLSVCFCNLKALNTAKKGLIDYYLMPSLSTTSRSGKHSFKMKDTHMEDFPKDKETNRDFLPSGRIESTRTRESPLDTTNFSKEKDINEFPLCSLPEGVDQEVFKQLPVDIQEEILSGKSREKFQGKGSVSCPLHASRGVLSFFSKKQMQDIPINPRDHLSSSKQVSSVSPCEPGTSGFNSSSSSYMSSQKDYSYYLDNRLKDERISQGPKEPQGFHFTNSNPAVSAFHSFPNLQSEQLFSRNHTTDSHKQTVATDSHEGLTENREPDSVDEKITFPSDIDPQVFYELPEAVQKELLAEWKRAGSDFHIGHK
# The whole screen tested about 390,000 compounds, of which about 4,000 (1%) were called active. This list was built around the results that the source calls inconclusive (neither active nor inactive); the mix of calls is not that of the screen. Calls come from the whole dose curve; as a rule, active = well fitted inhibition curve with a large enough effect; inconclusive = small, poorly fitted or top-dose-only effect, or another doubt; inactive = no such curve, though single readings can be large or run the other way. Where the call is inconclusive, the potency comes from a doubtful curve fit.
# Target: DNA polymerase iota (Homo sapiens) (UniProt Q9UNA4)
# Experiment: qHTS for Inhibitors of Polymerase Iota
# Details: Pol iota fluorescent replication assay, 10 min; series mostly up to 115 µM
# Outline: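 Fluorescent replication assay read twice, at 0 min and 10 min after adding 50 nM (final) substrate. Enzyme (10 nM) and compounds were first incubated 15 min at room temperature; enzyme-free buffer wells were negative controls.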
# Potency is the fitted concentration of half-maximal effect.
row,Compound,Potency
1,CCOC(=O)Cc1csc(NC(=O)/C=C/c2ccco2)n1,"inconclusive: 63.1 µM [inhibitor, partial curve, poor fit]"
2,Cc1csc2nc(-c3cccc(NC(=O)c4cccc(F)c4)c3)cn12,inactive
3,CC(NS(=O)(=O)c1cc2c3c(c1)CCC(=O)N3CCC2)c1ccccc1 (stereo not given),inactive
4,CC(=O)Nc1ccccc1C,"inconclusive: 89.1 µM [inhibitor, single point]"
5,COc1ccccc1C(=O)NCCC(=O)N1CCN(c2ccccc2O)CC1,"inconclusive: 79.4 µM [inhibitor, partial curve]"
6,COc1ccccc1C1NC(c2ccc3c(c2)OCO3)=CC(c2cc(Br)ccc2O)N1 (stereo not given),"inconclusive: 25.1 µM [inhibitor, partial curve]"
7,CCOc1ccccc1NC(=O)C1CCCN(S(=O)(=O)c2ccc(OC)c(C)c2)C1 (stereo not given),inactive
8,CN(Cc1ccco1)C(=O)c1ccc(OC2CCN(Cc3ccccn3)CC2)cc1,inactive
9,O=C(NC(=S)Nc1ccccn1)c1ccc(-c2ccccc2)cc1,"inconclusive: 25.1 µM [inhibitor, partial curve, poor fit]"
10,CCc1cccc2c(C(=O)COC(=O)/C=C/c3ccc(O)c(OC)c3)c[nH]c12,"inconclusive: 79.4 µM [inhibitor, partial curve]"
11,CCC(Cn1nnc2ccccc2c1=O)NC(=O)Nc1cc(Cl)ccc1OC (stereo not given),"inconclusive: 89.1 µM [inhibitor, single point]"
12,COc1cccc(NC(=O)COC(=O)CC2CC3CCC2C3)c1 (stereo not given),"inconclusive: 11.2 µM [inhibitor, full curve, poor fit]"
13,CC1(c2ccccc2)CC(C)(C)n2c(O)c(C3=NC(=S)NC3=O)c3cccc1c32 (stereo not given),"inconclusive: 79.4 µM [inhibitor, single point]"
14,CSc1ncccc1C(=O)Nc1ncc(C)s1,"inconclusive: 79.4 µM [inhibitor, partial curve, poor fit]"
15,Fc1ccc(-c2csc(-c3nc(-c4ccc(Br)s4)cs3)n2)cc1,inactive
16,Cc1ccc(Cl)cc1NC(=O)/C(C#N)=C/c1c(C)n(Cc2ccccc2)c2ccccc12,"inconclusive: 89.1 µM [inhibitor, single point]"
17,O=C1C2CC=C(Cl)CC2C(=O)N1CN(Cc1ccco1)CN1C(=O)C2CC=C(Cl)CC2C1=O (stereo not given),"inconclusive: 39.8 µM [inhibitor, partial curve, poor fit]"
18,O=C(Nc1cccc(-c2nc3ccccc3s2)c1)c1ccc2c(c1)OCO2,"inconclusive: 89.1 µM [inhibitor, partial curve, poor fit]"
19,CN(CC(=O)Nc1cccc(F)c1)C(=O)/C=C/c1ccc2ccccc2n1,"inconclusive: 79.4 µM [inhibitor, single point]"
20,CCc1nc2oc3ccccc3c(=O)c2cc1C(=O)OC,inactive

row,Compound,Potency
1,Cc1ccc(Cl)cc1NC(=O)COC(=O)c1ccccc1O,inactive
2,CC(=O)CC(=O)Nc1cccc2c1CCCC2,"inconclusive: 15.8 µM [inhibitor, partial curve, poor fit]"
3,O=c1c(O[C@@H]2O[C@H](CO)[C@@H](O)[C@H](O)[C@H]2O)c(-c2ccc(O)cc2)oc2cc(O)cc(O)c12,"inconclusive: 89.1 µM [inhibitor, partial curve, poor fit]"
4,CC(C)Cn1c(=O)c2sccc2n2c(CCCC(=O)Nc3ccc(Cl)cc3)nnc12,inactive
5,CCCC(=O)NCC(c1cccs1)S(=O)(=O)c1ccc(C)cc1 (stereo not given),"inconclusive: 70.8 µM [inhibitor, single point]"
6,CCN(CC)C(=O)CN(c1ccc2c(c1)OCO2)S(C)(=O)=O,"inconclusive: 44.7 µM [inhibitor, partial curve]"
7,O=C(c1cc2cc(F)ccc2[nH]1)N1CCc2ccccc2C1,"inconclusive: 79.4 µM [inhibitor, single point]"
8,CCOC(=O)c1oc2c(O)c(O)ccc2c(=O)c1-c1nncn1-c1ccccc1,"inconclusive: 3.16 µM [inhibitor, full curve, poor fit]"
9,O=C(NS(=O)(=O)Nc1ccccn1)c1c[nH]c2ccccc12,"inconclusive: 31.6 µM [inhibitor, full curve, poor fit]"
10,Cc1ccc(S(=O)(=O)Cn2nnnc2C(c2ccccn2)N2CCN(c3ccccc3)CC2)cc1 (stereo not given),"inconclusive: 39.8 µM [inhibitor, single point]"
11,CCOC(=O)c1c(C)oc2c1c(C=NCCO)c(O)c1ccccc12,"inconclusive: 0.708 µM [inhibitor, full curve, poor fit]"
12,COc1ccc2c(Sc3ccccc3)c(C(=O)NCCN(C)C)[nH]c2c1,inactive
13,COc1ccc(C(=O)/C(=C/c2cccs2)c2nc3ccccc3o2)cc1,"inconclusive: 3.16 µM [inhibitor, partial curve, poor fit]"
14,CCCN(CCC)CC(O)Cn1cc(/C=C/C(=O)c2cccs2)c2ccccc21 (stereo not given),"inconclusive: 39.8 µM [inhibitor, partial curve, poor fit]"
15,Cc1[nH][nH]c(=O)c1C(c1ccc(-c2ccc(Cl)cc2)o1)c1c(C)[nH][nH]c1=O,"inconclusive: 22.4 µM [inhibitor, full curve, poor fit]"
16,COc1cc(C(=O)N/N=C/c2coc3ccccc3c2=O)cc(OC)c1OC,"inconclusive: 10 µM [inhibitor, partial curve, poor fit]"
17,NC1=NN(c2cccc(C(=O)O)c2)C(=O)C1,"inconclusive: 25.1 µM [inhibitor, partial curve]"
18,Cc1cc2ccccn2c1C(=O)c1ccc(NN)c([N+](=O)[O-])c1,"inconclusive: 12.6 µM [inhibitor, partial curve, poor fit]"
19,CC(=O)Nc1ccc(S(=O)(=O)Nc2cc(C)c(-n3nc4ccccc4n3)cc2O)cc1,"inconclusive: 8.91 µM [inhibitor, partial curve, poor fit]"
20,COC(=O)c1ccccc1NCc1cc(=O)oc2cc(O)c(O)cc12,"inconclusive: 2.82 µM [inhibitor, full curve, poor fit]"

# Entries above that have an aryl methoxy group:
row,Compound,Potency
5,COc1ccccc1C(=O)NCCC(=O)N1CCN(c2ccccc2O)CC1,"inconclusive: 79.4 µM [inhibitor, partial curve]"
6,COc1ccccc1C1NC(c2ccc3c(c2)OCO3)=CC(c2cc(Br)ccc2O)N1 (stereo not given),"inconclusive: 25.1 µM [inhibitor, partial curve]"
7,CCOc1ccccc1NC(=O)C1CCCN(S(=O)(=O)c2ccc(OC)c(C)c2)C1 (stereo not given),inactive
10,CCc1cccc2c(C(=O)COC(=O)/C=C/c3ccc(O)c(OC)c3)c[nH]c12,"inconclusive: 79.4 µM [inhibitor, partial curve]"
11,CCC(Cn1nnc2ccccc2c1=O)NC(=O)Nc1cc(Cl)ccc1OC (stereo not given),"inconclusive: 89.1 µM [inhibitor, single point]"
12,COc1cccc(NC(=O)COC(=O)CC2CC3CCC2C3)c1 (stereo not given),"inconclusive: 11.2 µM [inhibitor, full curve, poor fit]"
12,COc1ccc2c(Sc3ccccc3)c(C(=O)NCCN(C)C)[nH]c2c1,inactive
13,COc1ccc(C(=O)/C(=C/c2cccs2)c2nc3ccccc3o2)cc1,"inconclusive: 3.16 µM [inhibitor, partial curve, poor fit]"
16,COc1cc(C(=O)N/N=C/c2coc3ccccc3c2=O)cc(OC)c1OC,"inconclusive: 10 µM [inhibitor, partial curve, poor fit]"
